Source: patent US20090317401A1
These are yes or no findings as the source states them, for the method shown. Some entries that bind do so weakly or less than the wild type.

How the values were obtained:
[1] = target: T1, human CD160 receptor (human) (UniProt O95971); test: flow cytometry with PE tetramers, 37 C, 1 h
T1 sequence (GPI-anchored, looked up): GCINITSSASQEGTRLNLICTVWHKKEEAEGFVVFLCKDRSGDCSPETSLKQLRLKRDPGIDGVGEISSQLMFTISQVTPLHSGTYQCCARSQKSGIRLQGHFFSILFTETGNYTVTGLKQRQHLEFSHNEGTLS

[2] = target: T1, human CD160 receptor (human); test: flow cytometry with PE tetramers
[3] = target: T1, human CD160 receptor (human); test: radioreceptor assay: 125I-sHLA-G1 on HUVEC at 4 C, 2 h, unlabelled sHLA-G1 as competitor; the receptor on HUVEC is named CD160 later in the filing
[4] = target: T1, human CD160 receptor (human); test: figure legend title; flow cytometry on HUVEC
[5] = target: T1, human CD160 receptor (human); test: radioreceptor assay: 125I-sHLA-G1 on HUVEC at 4 C, unlabelled sHLA-G1 as competitor; the receptor on HUVEC is named CD160 later in the filing
[6] = target: T1, human CD160 receptor (human); test: tetramer staining and blocking of CL1-R2 on HUVEC, flow cytometry
[7] = target: T1, human CD160 receptor (human); test: figure legend title; tetramer staining and blocking of CL1-R2 on HUVEC
[8] = target: T1, human CD160 receptor (human); test: pre-incubation of HUVEC with sHLA-G1, then CL1-R2 staining, flow cytometry

Measured: binding

HLA-G1 tetramer with self-peptide …, streptavidin-PE (from UniProt P17693 25-300; P61769 21-119) (peptide-MHC)
binds: [1] | [2]

soluble HLA-G1 (sHLA-G1), purified recombinant (from UniProt P17693 25-319; P61769 21-119) (ligand)
not listed: [1] | [2]
binds: all other assays above
